Hit rate of the full screen: of about 320,000 compounds, about 2,100 (0.66%) were called active. This list was built around the results that the source calls inconclusive (neither active nor inactive); the mix of calls is not that of the screen. Calls follow the shape of the dose curve; as a rule, active = well fitted inhibition curve with a large enough effect in the signal ratio, with a control signal flat (not every such curve was filed as active); inconclusive = small, poorly fitted or top-dose-only effect, or effect the other way, or a change in a side signal; inactive = flat fitted curve, though single readings scatter; the % refers to the signal ratio. A potency beside an inconclusive call is a rough fit, not a confirmed value. Where a SMILES comes first, the peptide text is derived from it. The star is where a group is joined. Boc = CC(C)(C)OC(=O)*; OBn = c1ccc(CO*)cc1
Experiment: qHTS Assay for Lipid Storage Modulators in Drosophila S3 Cells
Conditions: BODIPY lipid droplet fluorescence, 18-24 h, cells fed with added oleic acid; lipid storage change, negative = inhibition: at 46.1 µM (top of the series) unless noted
Outline: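 Laser-scanning cytometry quantifies lipid droplet accumulation (500–530 nm total intensity; droplet/cell object ratio) in oleic acid-fed (400 uM added) Drosophila S3 cells treated with a concentration series. 20 uM Triacsin C defined 100% inhibition.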
% is scaled to controls: 0 for no effect and ±100 for the full control effect; potency is read from the fitted curve at half-maximal effect.

Lipid storage change, negative = inhibition, inactive:
Cc1ccc(S(=O)(=O)NCCC(=O)NCCOc2ccccc2)cc1 -20.7% [at 0.0737 µM]
O=C1C2CCCN2C(c2cccs2)N1c1ccc(F)cc1 (stereo not given) 0.267%
CCN1CCN(CC(=O)Nc2ccc(OC(F)(F)F)cc2)CC1 -6.43%
O=C(NNc1nc2c(F)cccc2s1)c1cc(=O)c2ccccc2o1 -15%

Lipid storage change, negative = inhibition, inconclusive:
COc1ccc(S(=O)(=O)N2CCCCC2)cc1NC(=S)Nc1cccc(Cl)c1C 24%
COc1cccc(NC(=O)CN2CCCCCC2)c1 -5.46%
Cn1c(N)c(C(=O)CSc2nnc(-c3cccs3)n2C2CC2)c(=O)[nH]c1=O
CCOc1ccc(Nc2nc(Cl)nc(NCCO)n2)cc1 17.5%
Nc1c(C(=O)N2CCCC2)sc2nc(-c3ccccc3)ccc12 -28.8%
COc1cccc(C(=O)NNC(=O)c2ccccc2-n2cccc2)c1 -31.4%
Cc1cc(C)cc(OCc2ccc(C(=O)NN)o2)c1 5.64%
Cn1nc(C(=O)NCc2ccc(F)cc2)c2ccccc2c1=O 21.5%
Nc1ccc(NC(=S)Nc2ccccc2)cc1 6.06%
CCc1noc(C)c1C(=O)Nc1ccc(C(F)(F)F)cc1 2.51%
CC(=O)Nc1ccc(N=Cc2nc(-c3ccc(C)cc3)oc2O)cc1 28.1%
Cc1ccc(OC(=O)c2ccc(C)c([N+](=O)[O-])c2)cn1 8.37%
O=C(COC(=O)CN1C(=O)C2CCCCC2C1=O)Nc1cc(S(=O)(=O)N2CCOCC2)ccc1Cl (stereo not given) -0.556%
COc1ccc(C2(C)NC(=O)N(CC(=O)c3ccc4c(c3)OCO4)C2=O)cc1 (stereo not given) -4.09%
Cc1sc2c(c1C)c(=O)n(-c1ccc(F)cc1)c(=O)n2CC(=O)NCc1ccco1 20.2%
COc1ccc(C(=O)N2CC(=O)N(CCc3ccccc3)C(=O)C2)cc1OC 21.3%
COc1ccccc1Oc1ccc(N/C=C2/CCCC2=O)cc1 -4.72%
O=C(NCc1cccc(F)c1)C1CCN(S(=O)(=O)Cc2ccccc2)CC1 5.62%
Cc1ccc(NC(=O)CN2C(=O)S/C(=C\c3cccn3C)C2=O)cc1 -40.4%
O=C(O)CSc1c(O)c2ccccc2[nH]c1=O -51.3%
O=C(NC1CCCc2ccccc21)c1ccc(Cl)nc1 (stereo not given) -30.2%
CCOC(=O)N1CCN(C(=O)CNC(=O)c2ccc(Br)o2)CC1 6.6%
COc1cc(C(=O)OCC(C)=O)c([N+](=O)[O-])cc1OC 19.5%
CCOc1ccc(N(C(C)C(=O)Nc2cccnc2)S(C)(=O)=O)cc1 (stereo not given) 30.1%
COc1cc(/C=C/C(=O)Nc2cccc(S(=O)(=O)N3CCOCC3)c2)ccc1OCC#N 24.7%
Cc1ccc(C2(C)NC(=O)N(CC(=O)Nc3ccc(-c4nc5ccc(C)cc5s4)cc3)C2=O)cc1 (stereo not given) 31.9%
Cn1nc(C(=O)NCc2ccccn2)c2ccccc2c1=O 26.3%
O=C(/C=C/c1ccco1)Nc1ccc(-c2nc3ccccc3[nH]2)cc1 18.5%
CC(C)CC(NC(=O)C(NC(=O)OC(C)(C)C)C(C)C)C(=O)NC(CCC(=O)OCc1ccccc1)C(N)=O (stereo not drawn) (Boc-Val-Leu-Glu(OBn)-NH2; configuration not given here) -36.6%
CC(=O)NC1=NC(=O)/C(=C/c2cc(C)n(-c3cccc(C(=O)O)c3)c2C)S1 1.71%
CCC1(C)Cc2c(sc3nnn(CC(=O)Nc4cccc5ccccc45)c(=O)c23)CO1 (stereo not given) -4.12%
Cc1cc(C(=O)N2CCN(c3cc(Cl)ccc3C)CC2)on1 -47.6%
O=C(CC1C(=O)NCCN1Cc1ccc(-c2ccccc2)cc1)NCc1ccncc1 (stereo not given) 18.1%
CCCCN(C(=O)c1ccc2c(c1)NC(=O)CS2)c1ccccc1 -63.4%
Cc1cccc(Nc2c(-c3ccc(N4CCOCC4)cc3)nc3ncccn23)c1 -1.89%
O=C(CSc1nc(=O)n(Cc2ccccn2)c2c1CCC2)Nc1ccc(F)cc1F
CCN(c1ccccc1)S(=O)(=O)c1ccc2ccccc2c1 16.2%
CCOC(=O)C1CCCN(Cc2c(Cl)cccc2Cl)C1 (stereo not given) -6.64%
OC(COCCOc1ccc(Br)cc1)CN1CCN(Cc2ccccc2)CC1 (stereo not given) 4.56%
COc1cccc(N2CCN(C(=O)Cn3c(=O)oc4ccccc43)CC2)c1 -23.4%
Cc1ccc(-c2noc(CCC(=O)NCCN3CCOCC3)n2)cc1 12.4%
CC(=O)O[C@H]1CC(C)(C)C(=C=C/C(C)=C/C=C/C(C)=C/C=C/C=C(C)/C=C/C=C(\C)C(=O)C[C@@]23O[C@]2(C)C[C@@H](O)CC3(C)C)[C@](C)(O)C1 -12.8%
Cc1ccccc1OCC(=O)NCC(c1ccco1)N1CCCCC1 (stereo not given) -11.4%

Potency, active:
C/C(=N/Nc1ccc([N+](=O)[O-])cc1)c1c[nH]c2ccccc12 4.11 µM
COc1cc2c(cc1NC(=O)c1ccc(C(C)(C)C)cc1)CCCC2 16.4 µM
CCc1ccc(C(=O)c2oc3nc(C)cc(C)c3c2N)cc1 25.9 µM
CCN1CCN(c2ccccc2NC(=O)C(C)Oc2ccc(C(C)=O)cc2)CC1 (stereo not given) 18.4 µM
CCOC(=O)c1c(-c2ccc(C)cc2)csc1NC(=O)/C(C#N)=C/c1ccc(O)c(OC)c1 23.1 µM

Potency, inconclusive:
CCCc1cc(N2CCCC(C(=O)Nc3c(OC)cccc3OC)C2)n2ncnc2n1 (stereo not given) 0.411 µM [falling, single point]
NS(=O)(=O)c1ccc(CNC(=O)Cc2cccs2)cc1 1.3 µM [activator, partial curve]
COc1ccc(-c2nc3ccc(C(=O)NCCCN4CCOCC4)cc3nc2-c2ccc(OC)cc2)cc1 5.8 µM [falling, full curve, poor fit]
CCOc1ccc(-c2cn3ccccc3n2)cc1[N+](=O)[O-] 6.51 µM [activator, partial curve, poor fit]
CCCCOc1ccc(-c2nnn(CC(=O)NCCc3c[nH]c4ccccc34)n2)cc1 1.84 µM [rising, partial curve]
O=C1C2CC=C(Cl)CC2C(=O)N1CNc1ccccn1 (stereo not given) 0.411 µM [falling, full curve, poor fit]
NC(=O)c1ccc(NC(=O)COC(=O)c2ccc(Cl)nc2)cc1 6.51 µM [activator, partial curve, poor fit]
CSc1nsc(SCC(=O)Nc2cc(C(=O)O)ccc2C)n1 0.092 µM [falling, full curve, poor fit]
CCOC(=O)[C@H]1[C@H]2COc3ccc(OC)cc3[C@@H]2N2C(=O)c3cc(OC)ccc3NC(=O)[C@@]12C 0.82 µM [activator, single point]
COCCNC(=O)c1c[nH]c2ccc(S(=O)(=O)N3CCOCC3)cc2c1=O 23.1 µM [falling, partial curve, poor fit]
Nc1ccc(O)c2c1C(=O)c1ccccc1C2=O 23.1 µM [falling, single point]
O=C(CN1CCN(Cc2ccc(Cl)cc2)C1=O)NCCCN1CCOCC1 29.1 µM [activator, single point]
Cc1ccc(Cl)cc1NC(=O)c1cnn2c1NC(c1ccco1)CC2C(F)(F)F (stereo not given) 0.517 µM [rising, full curve, poor fit]
CCN1C(=O)[C@@H]2[C@@H](c3ccc(-c4ccc(C(C)=O)cc4)cc3)N3CCCC[C@@]3(C(=O)OC)[C@@H]2C1=O 25.9 µM [falling, single point]
COc1ccc(C(=O)Nc2ccccc2C(=O)NCCCn2ccnc2)cc1 0.291 µM [activator, full curve]
Cn1c2ccccc2c(=O)c2c(=O)n(Cc3ccco3)c(COc3ccccc3)nc21 7.31 µM [activator, partial curve]
COc1cc(C)ccc1OCC(=O)Nc1ccccc1N1CCOCC1 6.51 µM [activator, single point]
COCCN1C(=O)N(c2cccc(OC)c2)C(=O)C1CC(=O)Nc1ccc(OC)cc1 (stereo not given) 29.1 µM [activator, single point]
O=c1c2ccccc2nc2n1C(CSc1ccc(F)cc1)CN2 (stereo not given) 0.0046 µM [activator, full curve, poor fit]
Cc1c[n+](CC(=O)c2ccccc2)c(C)cn1 0.58 µM [falling, single point]
C=CCN1C(=O)C(CC(=O)Nc2ccc(OC)cc2)SC1=Nc1ccc(S(N)(=O)=O)cc1 (stereo not given) 0.0046 µM [falling, full curve, poor fit]

2 successive entries out of the list so far, for reference:
Potency, inconclusive:
NS(=O)(=O)c1ccc(CNC(=O)Cc2cccs2)cc1 1.3 µM [activator, partial curve]
COc1ccc(-c2nc3ccc(C(=O)NCCCN4CCOCC4)cc3nc2-c2ccc(OC)cc2)cc1 5.8 µM [falling, full curve, poor fit]

Next part:

outcome, inactive:
CN(C)S(=O)(=O)c1cccc(C(=O)NCCOC(=O)c2cc(F)c(F)cc2Cl)c1 inactive [at 46.1 µM]
COc1ccc(S(=O)(=O)N2CCOC2CNC(=O)C(=O)NCc2ccncc2)cc1 (stereo not given) inactive [at 46.1 µM]

— PubChem BioAssay AID2685 (National Center for Advancing Translational Sciences (NCATS), 2010)
